The target of test [1] is T1, C-terminally tagged NCAPH2 (NCAPH2-AID-mCherry) (human) (UniProt Q6IBW4).
T1 sequence: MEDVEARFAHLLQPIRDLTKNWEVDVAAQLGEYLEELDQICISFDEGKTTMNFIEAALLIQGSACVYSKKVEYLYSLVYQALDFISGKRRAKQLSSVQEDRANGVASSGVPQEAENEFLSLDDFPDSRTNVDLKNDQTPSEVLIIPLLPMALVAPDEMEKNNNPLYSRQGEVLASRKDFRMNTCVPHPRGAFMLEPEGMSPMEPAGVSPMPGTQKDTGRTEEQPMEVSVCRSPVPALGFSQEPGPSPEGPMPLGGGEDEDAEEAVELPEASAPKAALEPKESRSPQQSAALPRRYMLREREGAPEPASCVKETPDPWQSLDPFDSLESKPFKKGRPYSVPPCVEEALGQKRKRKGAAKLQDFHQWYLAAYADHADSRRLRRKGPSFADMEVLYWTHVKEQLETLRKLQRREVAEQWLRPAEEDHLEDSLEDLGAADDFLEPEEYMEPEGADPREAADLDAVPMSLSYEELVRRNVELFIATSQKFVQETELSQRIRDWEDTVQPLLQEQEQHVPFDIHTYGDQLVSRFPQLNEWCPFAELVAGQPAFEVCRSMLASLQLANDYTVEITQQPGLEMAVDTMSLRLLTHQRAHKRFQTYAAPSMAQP
Description: co-IP; immunoprecipitation with a custom anti-NCAPH2 antibody from whole cell extract of HCT-116 NCAPH2-AID-mCherry cells, with or without 5 hour treatment with 500µM auxin; immunoblot.

By UniProt entry, the sequences of proteins in these tests, tags left out.
UniProt Q3TKT4: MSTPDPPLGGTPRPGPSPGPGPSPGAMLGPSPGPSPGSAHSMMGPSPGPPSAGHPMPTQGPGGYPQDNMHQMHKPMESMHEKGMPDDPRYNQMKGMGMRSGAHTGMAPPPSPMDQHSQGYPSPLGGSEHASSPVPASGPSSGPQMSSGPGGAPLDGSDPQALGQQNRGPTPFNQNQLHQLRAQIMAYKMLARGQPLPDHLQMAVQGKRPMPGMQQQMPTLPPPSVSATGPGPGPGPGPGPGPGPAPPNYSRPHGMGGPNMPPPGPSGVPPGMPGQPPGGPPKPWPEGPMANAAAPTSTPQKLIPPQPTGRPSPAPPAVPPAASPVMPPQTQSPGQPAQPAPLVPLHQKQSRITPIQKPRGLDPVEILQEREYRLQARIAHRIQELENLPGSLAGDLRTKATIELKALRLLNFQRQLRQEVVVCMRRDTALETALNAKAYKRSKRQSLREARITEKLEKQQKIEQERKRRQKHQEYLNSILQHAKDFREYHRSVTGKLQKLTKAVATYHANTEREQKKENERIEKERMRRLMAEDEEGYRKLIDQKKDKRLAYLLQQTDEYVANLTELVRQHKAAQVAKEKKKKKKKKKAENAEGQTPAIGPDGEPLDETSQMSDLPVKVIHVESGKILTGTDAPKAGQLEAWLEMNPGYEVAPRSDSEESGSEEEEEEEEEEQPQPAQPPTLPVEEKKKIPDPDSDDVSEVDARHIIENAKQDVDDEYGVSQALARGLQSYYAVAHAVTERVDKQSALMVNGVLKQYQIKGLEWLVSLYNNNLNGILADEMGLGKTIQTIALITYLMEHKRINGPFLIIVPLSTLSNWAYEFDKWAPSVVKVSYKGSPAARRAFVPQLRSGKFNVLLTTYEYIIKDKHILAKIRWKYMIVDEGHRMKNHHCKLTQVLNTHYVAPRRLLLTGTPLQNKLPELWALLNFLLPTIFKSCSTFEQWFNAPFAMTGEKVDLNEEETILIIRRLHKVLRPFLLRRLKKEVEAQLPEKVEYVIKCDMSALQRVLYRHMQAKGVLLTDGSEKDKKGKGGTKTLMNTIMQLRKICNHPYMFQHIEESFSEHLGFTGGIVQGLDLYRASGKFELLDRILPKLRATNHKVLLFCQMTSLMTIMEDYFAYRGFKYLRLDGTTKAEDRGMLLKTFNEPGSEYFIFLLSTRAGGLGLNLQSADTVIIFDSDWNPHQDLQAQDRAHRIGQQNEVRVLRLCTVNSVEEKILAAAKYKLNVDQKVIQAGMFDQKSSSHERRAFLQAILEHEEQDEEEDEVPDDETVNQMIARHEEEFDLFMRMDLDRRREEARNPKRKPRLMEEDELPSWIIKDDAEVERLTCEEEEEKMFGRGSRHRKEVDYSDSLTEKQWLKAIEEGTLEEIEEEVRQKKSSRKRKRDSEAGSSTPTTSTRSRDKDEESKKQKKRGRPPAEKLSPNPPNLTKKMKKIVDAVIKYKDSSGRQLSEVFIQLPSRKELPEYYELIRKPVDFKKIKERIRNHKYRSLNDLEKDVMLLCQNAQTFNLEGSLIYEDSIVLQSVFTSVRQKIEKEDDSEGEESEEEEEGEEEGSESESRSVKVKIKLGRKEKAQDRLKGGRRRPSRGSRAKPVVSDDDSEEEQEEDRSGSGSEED
UniProt A2BH40: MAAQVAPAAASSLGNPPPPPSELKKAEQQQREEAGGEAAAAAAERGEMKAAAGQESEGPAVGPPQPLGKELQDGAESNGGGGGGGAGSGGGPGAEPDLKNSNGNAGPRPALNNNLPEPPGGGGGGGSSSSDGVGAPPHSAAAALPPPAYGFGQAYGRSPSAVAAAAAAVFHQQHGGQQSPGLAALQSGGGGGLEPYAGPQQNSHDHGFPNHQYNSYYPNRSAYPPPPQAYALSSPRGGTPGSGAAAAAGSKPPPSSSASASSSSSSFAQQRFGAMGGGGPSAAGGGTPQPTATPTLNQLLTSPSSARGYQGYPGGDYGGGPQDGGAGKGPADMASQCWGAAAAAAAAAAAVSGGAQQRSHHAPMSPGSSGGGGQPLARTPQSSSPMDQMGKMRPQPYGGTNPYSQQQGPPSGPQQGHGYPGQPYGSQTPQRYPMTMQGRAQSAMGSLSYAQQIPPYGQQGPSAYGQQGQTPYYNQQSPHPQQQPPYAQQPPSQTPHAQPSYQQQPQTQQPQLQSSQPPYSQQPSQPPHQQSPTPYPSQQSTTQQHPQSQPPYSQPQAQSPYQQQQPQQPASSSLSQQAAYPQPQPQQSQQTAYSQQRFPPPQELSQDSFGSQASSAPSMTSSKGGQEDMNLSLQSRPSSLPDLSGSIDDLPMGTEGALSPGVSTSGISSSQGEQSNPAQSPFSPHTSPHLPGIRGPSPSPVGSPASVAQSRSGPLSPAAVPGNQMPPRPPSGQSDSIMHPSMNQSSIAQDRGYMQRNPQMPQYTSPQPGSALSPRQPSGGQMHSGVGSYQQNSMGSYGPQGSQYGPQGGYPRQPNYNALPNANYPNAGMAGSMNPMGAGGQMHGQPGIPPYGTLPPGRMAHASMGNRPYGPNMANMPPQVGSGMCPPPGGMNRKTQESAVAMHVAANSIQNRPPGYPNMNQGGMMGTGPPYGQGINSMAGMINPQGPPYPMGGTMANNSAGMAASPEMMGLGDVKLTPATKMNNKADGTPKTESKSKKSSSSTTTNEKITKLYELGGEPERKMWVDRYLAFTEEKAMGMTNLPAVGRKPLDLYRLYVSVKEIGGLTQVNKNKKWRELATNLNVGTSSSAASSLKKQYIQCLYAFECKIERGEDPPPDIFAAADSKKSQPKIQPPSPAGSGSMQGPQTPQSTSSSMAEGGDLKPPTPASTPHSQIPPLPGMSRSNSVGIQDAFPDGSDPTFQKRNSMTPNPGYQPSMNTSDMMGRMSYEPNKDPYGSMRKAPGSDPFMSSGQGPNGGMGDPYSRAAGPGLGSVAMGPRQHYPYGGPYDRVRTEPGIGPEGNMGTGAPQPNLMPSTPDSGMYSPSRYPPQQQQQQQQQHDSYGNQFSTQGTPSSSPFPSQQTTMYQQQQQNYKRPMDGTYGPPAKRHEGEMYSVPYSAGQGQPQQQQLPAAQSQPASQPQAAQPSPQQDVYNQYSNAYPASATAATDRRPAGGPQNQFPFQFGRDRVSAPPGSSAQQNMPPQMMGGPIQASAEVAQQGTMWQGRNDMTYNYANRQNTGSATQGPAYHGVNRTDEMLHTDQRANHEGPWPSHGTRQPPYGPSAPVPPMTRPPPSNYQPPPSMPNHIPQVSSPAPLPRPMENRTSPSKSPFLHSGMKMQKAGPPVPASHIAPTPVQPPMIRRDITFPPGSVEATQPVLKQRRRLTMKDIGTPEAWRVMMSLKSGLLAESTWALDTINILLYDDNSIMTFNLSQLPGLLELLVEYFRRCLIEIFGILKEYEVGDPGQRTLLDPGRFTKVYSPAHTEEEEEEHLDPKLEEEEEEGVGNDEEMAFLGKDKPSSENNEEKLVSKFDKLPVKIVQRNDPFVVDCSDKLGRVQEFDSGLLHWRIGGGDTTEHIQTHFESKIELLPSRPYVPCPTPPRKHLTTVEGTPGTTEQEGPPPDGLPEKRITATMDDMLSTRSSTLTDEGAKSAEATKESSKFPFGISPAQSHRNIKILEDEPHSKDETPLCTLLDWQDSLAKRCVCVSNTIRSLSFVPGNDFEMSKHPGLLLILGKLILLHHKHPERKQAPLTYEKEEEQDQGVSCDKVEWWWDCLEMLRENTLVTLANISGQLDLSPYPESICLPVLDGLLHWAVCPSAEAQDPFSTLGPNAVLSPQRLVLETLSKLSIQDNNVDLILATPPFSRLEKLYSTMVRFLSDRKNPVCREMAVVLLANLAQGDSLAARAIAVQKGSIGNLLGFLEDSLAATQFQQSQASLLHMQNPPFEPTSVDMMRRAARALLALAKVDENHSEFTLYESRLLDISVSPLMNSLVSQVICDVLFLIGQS
UniProt Q8CG47: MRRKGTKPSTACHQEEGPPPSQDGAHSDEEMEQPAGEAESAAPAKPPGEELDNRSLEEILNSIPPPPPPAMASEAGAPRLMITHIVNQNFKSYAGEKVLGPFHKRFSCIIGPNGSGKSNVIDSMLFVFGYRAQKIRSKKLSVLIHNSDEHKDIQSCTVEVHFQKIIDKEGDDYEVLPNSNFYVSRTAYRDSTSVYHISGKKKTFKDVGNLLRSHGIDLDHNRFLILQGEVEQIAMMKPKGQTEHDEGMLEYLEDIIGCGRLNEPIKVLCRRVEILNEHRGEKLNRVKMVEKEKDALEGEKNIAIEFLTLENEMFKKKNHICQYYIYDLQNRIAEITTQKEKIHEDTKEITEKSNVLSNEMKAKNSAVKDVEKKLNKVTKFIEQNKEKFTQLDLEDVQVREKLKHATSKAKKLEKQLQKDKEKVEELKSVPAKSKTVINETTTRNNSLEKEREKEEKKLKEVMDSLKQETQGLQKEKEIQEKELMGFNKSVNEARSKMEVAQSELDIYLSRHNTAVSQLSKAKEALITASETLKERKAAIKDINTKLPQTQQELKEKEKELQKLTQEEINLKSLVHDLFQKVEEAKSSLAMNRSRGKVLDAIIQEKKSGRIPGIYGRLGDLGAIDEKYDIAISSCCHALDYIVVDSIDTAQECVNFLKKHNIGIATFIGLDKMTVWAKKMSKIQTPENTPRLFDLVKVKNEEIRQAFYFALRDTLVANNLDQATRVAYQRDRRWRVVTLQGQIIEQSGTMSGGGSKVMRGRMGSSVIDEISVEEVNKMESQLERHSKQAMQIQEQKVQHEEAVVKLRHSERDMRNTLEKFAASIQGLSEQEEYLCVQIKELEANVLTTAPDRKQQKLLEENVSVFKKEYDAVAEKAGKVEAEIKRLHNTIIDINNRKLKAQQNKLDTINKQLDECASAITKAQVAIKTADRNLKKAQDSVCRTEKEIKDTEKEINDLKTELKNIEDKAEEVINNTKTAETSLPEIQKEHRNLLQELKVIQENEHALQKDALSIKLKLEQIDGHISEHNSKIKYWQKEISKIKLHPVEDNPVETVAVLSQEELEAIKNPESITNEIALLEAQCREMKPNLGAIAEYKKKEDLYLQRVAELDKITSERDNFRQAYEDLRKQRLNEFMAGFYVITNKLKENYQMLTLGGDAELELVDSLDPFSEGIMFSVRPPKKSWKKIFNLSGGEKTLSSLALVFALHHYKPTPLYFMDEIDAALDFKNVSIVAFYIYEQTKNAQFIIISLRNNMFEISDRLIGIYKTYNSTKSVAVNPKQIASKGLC

The target of test [2] is SWI/SNF subunit Smarca4 (mouse thymus) (mouse (endogenous in thymus)) (UniProt Q3TKT4). Description: co-IP; immunoprecipitation with B276 or anti-Smarca4 versus IgG from mouse thymic whole cell extract (1% triton buffer), 4°C overnight; immunoblot. Background: Immunoblotting shows a protein as a band on a membrane.
In test [3] the target is T2, Ncaph2 (mouse thymus) (mouse (endogenous in thymus)) (UniProt Q8BSP2).
T2 sequence: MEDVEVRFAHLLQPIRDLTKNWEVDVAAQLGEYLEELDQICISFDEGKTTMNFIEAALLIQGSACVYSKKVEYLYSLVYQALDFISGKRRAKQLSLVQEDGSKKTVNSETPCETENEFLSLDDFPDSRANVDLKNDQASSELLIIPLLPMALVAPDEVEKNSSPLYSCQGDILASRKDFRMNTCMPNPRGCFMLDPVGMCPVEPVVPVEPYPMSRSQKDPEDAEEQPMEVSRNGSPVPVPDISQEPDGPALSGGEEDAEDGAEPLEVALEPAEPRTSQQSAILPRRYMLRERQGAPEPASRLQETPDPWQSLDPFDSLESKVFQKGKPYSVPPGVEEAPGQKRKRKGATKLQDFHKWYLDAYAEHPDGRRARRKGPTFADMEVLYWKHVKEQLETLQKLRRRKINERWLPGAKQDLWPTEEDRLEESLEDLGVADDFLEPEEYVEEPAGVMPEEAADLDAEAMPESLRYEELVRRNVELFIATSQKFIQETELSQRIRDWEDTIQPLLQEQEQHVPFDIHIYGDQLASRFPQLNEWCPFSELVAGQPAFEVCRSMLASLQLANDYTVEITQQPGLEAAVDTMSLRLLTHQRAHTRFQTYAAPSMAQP
The test is described as above.

These are yes or no findings as the source states them, for the method shown. In cells and extracts the contact can be indirect. Some binding calls cover weakened binding; strength is not graded here. For some assays here: Sequences can lack the tags named with a protein.

Regarding “SMARCA4 subunit of SWI/SNF (HCT-116) (from UniProt P51532 1-1647)”, the binding entry in test [1] is on record as “no binding”.
Take “SWI/SNF component Arid1a (mouse thymus) (from UniProt A2BH40 1-2283)”: the binding result in test [2] is “binds”.
As to “SWI/SNF subunit Smarca4 (mouse thymus) (from UniProt Q3TKT4 1-1613)”, the binding entry in test [3] was “no binding”.
On the same count and under the same terms, next, “Smc4 subunit of condensin (mouse thymus) (from UniProt Q8CG47 1-1286)”: “binds”.

B1: Ncaph2 (mouse thymus) (protein, UniProt Q8BSP2 1-607)
chain: T2 sequence
Take B1: in test [2], the binding result was “no binding”.

The values above are taken from publication PMC7863998.
